Measurements published in paper PMC11287749.
For some assays here: No signal at the amounts used counts as a negative. The exact form of at least one protein or probe is not confirmed. For some assays here: The direction of at least one scale is not stated here.

Chains of the proteins cited; added tags and fusions are not shown. Residues count along the entry.
UniProt P05231, 30-212: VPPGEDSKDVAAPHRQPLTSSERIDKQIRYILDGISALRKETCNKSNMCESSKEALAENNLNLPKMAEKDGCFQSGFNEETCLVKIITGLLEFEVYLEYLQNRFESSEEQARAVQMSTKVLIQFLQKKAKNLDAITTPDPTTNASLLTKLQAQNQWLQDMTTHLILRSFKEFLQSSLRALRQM

Experiments:
[1] = target: IL-6 (human recombinant, Invitrogen) (Homo sapiens) (UniProt P05231); test: SWCNT NIR fluorescence; conditions: noncovalently adsorbed on SWCNT, 0.5 mg/L SWCNT-ssDNA in 1x PBS (or 1x PBS + 10% FBS), 5250 ng/mL IL-6, 120 uL, up to 180 min, commercial protein, single-stranded DNA; for binding result: PBS + 10% FBS, no significant response
[2] = target: IL-6 (human recombinant, Invitrogen) (Homo sapiens) (UniProt P05231); test: not stated (cited); conditions: 0.5 mg/L SWCNT-ssDNA in 1x PBS (or 1x PBS + 10% FBS), 5250 ng/mL IL-6, 120 uL, up to 180 min; commercial protein; single-stranded DNA

Sequence: TGTGTGTGTGTGTGTGTGTGTGTGTGTGTGGTGGCAGGAGGACTATTTATTTGCTTTTCT [(GT)15+31Apt]
- binding result ([1]; p = 0.58): no binding

Sequence: GGTGGCAGGAGGACTA [15Apt]
- binding result ([1]; p = 0.15): no binding

Sequence: GGTGGCAGGAGGACTA [15Apt (free, cited)]
- Kd [2]: 190 nM

Sequence: GGTGGCAGGAGGACTATTTATTTGCTTTTCT [31Apt (free, cited)]
- Kd [2]: 17 nM

Sequence: GGTGGCAGGAGGACTATTTATTTGCTTTTCT [31Apt]
- binding signal ([1]; PBS, construct heated to 95 C and cooled, 3 h, p = 0.032): 10 % quenching
